{"sequences": {"note": "Sequences of proteins named here, by UniProt entry; tags and fusion partners are left off.", "UniProt P10721, whole entry D816V": "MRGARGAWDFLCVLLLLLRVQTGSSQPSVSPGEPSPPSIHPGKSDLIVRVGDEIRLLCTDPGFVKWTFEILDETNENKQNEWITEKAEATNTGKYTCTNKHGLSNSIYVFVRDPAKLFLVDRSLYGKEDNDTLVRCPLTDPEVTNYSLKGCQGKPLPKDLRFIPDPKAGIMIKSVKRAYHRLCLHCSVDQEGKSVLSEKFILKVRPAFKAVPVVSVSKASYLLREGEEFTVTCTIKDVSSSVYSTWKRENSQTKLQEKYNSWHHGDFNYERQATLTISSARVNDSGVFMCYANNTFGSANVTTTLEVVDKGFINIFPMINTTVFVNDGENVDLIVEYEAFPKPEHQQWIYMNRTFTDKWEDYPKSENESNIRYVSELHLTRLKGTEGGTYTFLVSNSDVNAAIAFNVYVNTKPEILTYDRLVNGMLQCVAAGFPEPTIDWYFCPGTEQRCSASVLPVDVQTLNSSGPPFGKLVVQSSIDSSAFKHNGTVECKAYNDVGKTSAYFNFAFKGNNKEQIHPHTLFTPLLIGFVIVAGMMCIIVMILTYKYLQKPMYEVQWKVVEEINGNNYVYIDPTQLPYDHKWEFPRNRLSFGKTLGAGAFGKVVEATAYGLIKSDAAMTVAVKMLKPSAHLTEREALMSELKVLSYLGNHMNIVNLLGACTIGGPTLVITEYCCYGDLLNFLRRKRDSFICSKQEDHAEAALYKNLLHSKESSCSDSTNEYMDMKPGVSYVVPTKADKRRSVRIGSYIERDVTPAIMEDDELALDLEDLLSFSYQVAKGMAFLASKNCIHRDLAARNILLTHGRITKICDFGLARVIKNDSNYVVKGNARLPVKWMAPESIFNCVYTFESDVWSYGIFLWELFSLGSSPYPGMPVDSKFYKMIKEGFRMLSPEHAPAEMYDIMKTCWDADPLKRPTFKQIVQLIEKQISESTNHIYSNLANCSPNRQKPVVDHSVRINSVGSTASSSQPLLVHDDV"}, "source": "patent US10227357B2", "about": "“Compounds and methods for kinase modulation, and indications therefor” (Plexxikon Inc., priority 2012, dated 2019)", "note": "Some entries share one result that the patent states for a list of compounds.", "data": [{"target": "BaF3-FL KIT D816V cells (Homo sapiens, UniProt P10721, D816V, cells depend on it, form not given)", "assay": "Cell-based assay of c-Kit mutant kinase activity, BaF3-FL KIT D816V cell proliferation (ATPlite)", "conditions": "in at least one of the c-kit cell assays described in Example 28 (BaF3-FL KIT D816V or BaF3-FL KIT V560G/D816V); read-out: IC50 (the source's name)", "units": {"GI50": "µM"}, "values": [{"compound": "Nc1ccc(-c2ncnc3[nH]c(-c4ccc(F)cc4F)cc23)c(F)c1", "note": "[P-0341, 4-[6-(2,4-difluorophenyl)-7H-pyrrolo[2,3-d]pyrimidin-4-yl]-3-fluoro-aniline]", "GI50": "< 10"}, {"compound": "Cc1cc2c(-c3ccc(NS(=O)(=O)c4cc(F)cc(F)c4)cc3F)ncnc2[nH]1", "note": "[P-0342, 3,5-difluoro-N-[3-fluoro-4-(6-methyl-7H-pyrrolo[2,3-d]pyrimidin-4-yl)phenyl]benzenesulfonamide]", "GI50": "< 10"}, {"compound": "Cc1cc2c(-c3ccc(NS(=O)(=O)c4ccc(Cl)cc4)c(F)c3)ncnc2[nH]1", "note": "[P-0344, 4-chloro-N-[2-fluoro-4-(6-methyl-7H-pyrrolo[2,3-d]pyrimidin-4-yl)phenyl]benzenesulfonamide]", "GI50": "< 10"}, {"compound": "Cc1cc2c(-c3ccc(NS(=O)(=O)c4cccc(Cl)c4)c(F)c3)ncnc2[nH]1", "note": "[P-0345, 3-chloro-N-[2-fluoro-4-(6-methyl-7H-pyrrolo[2,3-d]pyrimidin-4-yl)phenyl]benzenesulfonamide]", "GI50": "< 10"}, {"compound": "Cc1cc2c(-c3ccc(NS(=O)(=O)c4cccc(F)c4)c(F)c3)ncnc2[nH]1", "note": "[P-0347, 3-fluoro-N-[2-fluoro-4-(6-methyl-7H-pyrrolo[2,3-d]pyrimidin-4-yl)phenyl]benzenesulfonamide]", "GI50": "< 10"}, {"compound": "Cc1cc2c(-c3ccc(NS(=O)(=O)c4ccccc4F)c(F)c3)ncnc2[nH]1", "note": "[P-0348, 2-fluoro-N-[2-fluoro-4-(6-methyl-7H-pyrrolo[2,3-d]pyrimidin-4-yl)phenyl]benzenesulfonamide]", "GI50": "< 10"}, {"compound": "Cc1cc2c(-c3ccc(NS(=O)(=O)c4ccc(Cl)cc4)cc3F)ncnc2[nH]1", "note": "[P-0349, 4-chloro-N-[3-fluoro-4-(6-methyl-7H-pyrrolo[2,3-d]pyrimidin-4-yl)phenyl]benzenesulfonamide]", "GI50": "< 10"}, {"compound": "Cc1cc2c(-c3ccc(NS(=O)(=O)c4ccc(C)c(F)c4)c(F)c3)ncnc2[nH]1", "note": "[P-0350, 3-fluoro-N-[2-fluoro-4-(6-methyl-7H-pyrrolo[2,3-d]pyrimidin-4-yl)phenyl]-4-methyl-benzenesulfonamide]", "GI50": "< 10"}, {"compound": "Cc1cc2c(-c3ccc(NS(=O)(=O)c4cccc(Cl)c4F)c(F)c3)ncnc2[nH]1", "note": "[P-0351, 3-chloro-2-fluoro-N-[2-fluoro-4-(6-methyl-7H-pyrrolo[2,3-d]pyrimidin-4-yl)phenyl]benzenesulfonamide]", "GI50": "< 10"}, {"compound": "CS(=O)(=O)Nc1ccc(-c2ncnc3[nH]c(-c4ccc(F)cc4)cc23)c(F)c1F", "note": "[P-0353, N-[2,3-difluoro-4-[6-(4-fluorophenyl)-7H-pyrrolo[2,3-d]pyrimidin-4-yl]phenyl]methanesulfonamide]", "GI50": "< 10"}, {"compound": "O=S(=O)(NCc1ccc(F)cc1)c1ccc(-c2ncnc3[nH]c(-c4ccc(F)cc4)cc23)c(F)c1", "note": "[P-0354, 3-fluoro-N-[(4-fluorophenyl)methyl]-4-[6-(4-fluorophenyl)-7H-pyrrolo[2,3-d]pyrimidin-4-yl]benzenesulfonamide]", "GI50": "< 10"}, {"compound": "O=S(=O)(Nc1cc(F)c(-c2ncnc3[nH]c(-c4ccc(F)cc4)cc23)cc1F)C1CC1", "note": "[P-0355, N-[2,5-difluoro-4-[6-(4-fluorophenyl)-7H-pyrrolo[2,3-d]pyrimidin-4-yl]phenyl]cyclopropanesulfonamide]", "GI50": "< 10"}, {"compound": "CS(=O)(=O)Nc1cc(F)c(-c2ncnc3[nH]c(-c4ccc(F)cc4)cc23)cc1F", "note": "[P-0356, N-[2,5-difluoro-4-[6-(4-fluorophenyl)-7H-pyrrolo[2,3-d]pyrimidin-4-yl]phenyl]methanesulfonamide]", "GI50": "< 10"}, {"compound": "Cc1cc2c(-c3ccc(NS(=O)(=O)c4cccc(Cl)c4)cc3F)ncnc2[nH]1", "note": "[P-0357, 3-chloro-N-[3-fluoro-4-(6-methyl-7H-pyrrolo[2,3-d]pyrimidin-4-yl)phenyl]benzenesulfonamide]", "GI50": "< 10"}, {"compound": "Cc1cc2c(-c3ccc(NS(=O)(=O)c4cccc(F)c4)cc3F)ncnc2[nH]1", "note": "[P-0358, 3-fluoro-N-[3-fluoro-4-(6-methyl-7H-pyrrolo[2,3-d]pyrimidin-4-yl)phenyl]benzenesulfonamide]", "GI50": "< 10"}, {"compound": "Cc1cc2c(-c3ccc(NS(=O)(=O)c4ccccc4F)cc3F)ncnc2[nH]1", "note": "[P-0359, 2-fluoro-N-[3-fluoro-4-(6-methyl-7H-pyrrolo[2,3-d]pyrimidin-4-yl)phenyl]benzenesulfonamide]", "GI50": "< 10"}, {"compound": "Cc1cc2c(-c3ccc(NS(=O)(=O)c4ccc(OC(F)F)cc4)c(F)c3)ncnc2[nH]1", "note": "[P-0360, 4-(difluoromethoxy)-N-[2-fluoro-4-(6-methyl-7H-pyrrolo[2,3-d]pyrimidin-4-yl)phenyl]benzenesulfonamide]", "GI50": "< 10"}, {"compound": "Cc1cc2c(-c3ccc(NS(=O)(=O)c4ccc(Cl)cc4F)c(F)c3)ncnc2[nH]1", "note": "[P-0361, 4-chloro-2-fluoro-N-[2-fluoro-4-(6-methyl-7H-pyrrolo[2,3-d]pyrimidin-4-yl)phenyl]benzenesulfonamide]", "GI50": "< 10"}, {"compound": "Cc1cc2c(-c3ccc(NS(=O)(=O)c4ccc(F)cc4)cc3F)ncnc2[nH]1", "note": "[P-0362, 4-fluoro-N-[3-fluoro-4-(6-methyl-7H-pyrrolo[2,3-d]pyrimidin-4-yl)phenyl]benzenesulfonamide]", "GI50": "< 10"}, {"compound": "COc1ccc(S(=O)(=O)Nc2ccc(-c3ncnc4[nH]c(C)cc34)c(F)c2)cc1", "note": "[P-0363, N-[3-fluoro-4-(6-methyl-7H-pyrrolo[2,3-d]pyrimidin-4-yl)phenyl]-4-methoxy-benzenesulfonamide]", "GI50": "< 10"}, {"compound": "Cc1cc2c(-c3ccc(NS(=O)(=O)c4cccc(Cl)c4F)cc3F)ncnc2[nH]1", "note": "[P-0364, 3-chloro-2-fluoro-N-[3-fluoro-4-(6-methyl-7H-pyrrolo[2,3-d]pyrimidin-4-yl)phenyl]benzenesulfonamide]", "GI50": "< 10"}, {"compound": "Cc1cc2c(-c3ccc(NS(=O)(=O)c4ccc(C)c(F)c4)cc3F)ncnc2[nH]1", "note": "[P-0365, 3-fluoro-N-[3-fluoro-4-(6-methyl-7H-pyrrolo[2,3-d]pyrimidin-4-yl)phenyl]-4-methyl-benzenesulfonamide]", "GI50": "< 10"}, {"compound": "Cc1cc2c(-c3ccc(NS(=O)(=O)c4ccc(OC(F)F)cc4)cc3F)ncnc2[nH]1", "note": "[P-0366, 4-(difluoromethoxy)-N-[3-fluoro-4-(6-methyl-7H-pyrrolo[2,3-d]pyrimidin-4-yl)phenyl]benzenesulfonamide]", "GI50": "< 10"}, {"compound": "[2H]C([2H])([2H])S(=O)(=O)Nc1ccc(-c2ncnc3[nH]c(-c4ccc(F)cc4)cc23)cc1F", "note": "[P-0367, 1,1,1-trideuterio-N-[2-fluoro-4-[6-(4-fluorophenyl)-7H-pyrrolo[2,3-d]pyrimidin-4-yl]phenyl]methanesulfonamide]", "GI50": "< 10"}, {"compound": "[2H]C([2H])([2H])S(=O)(=O)Nc1ccc(-c2ncnc3[nH]c(-c4ccc(F)cc4)cc23)c(F)c1", "note": "[P-0368, 1,1,1-trideuterio-N-[3-fluoro-4-[6-(4-fluorophenyl)-7H-pyrrolo[2,3-d]pyrimidin-4-yl]phenyl]methanesulfonamide]", "GI50": "< 10"}, {"compound": "O=S(=O)(NCC1CC1)c1ccc(-c2ncnc3[nH]c(-c4ccc(F)cc4)cc23)c(F)c1", "note": "[P-0369, N-(cyclopropylmethyl)-3-fluoro-4-[6-(4-fluorophenyl)-7H-pyrrolo[2,3-d]pyrimidin-4-yl]benzenesulfonamide]", "GI50": "< 10"}, {"compound": "Fc1ccc(-c2cc3c(-c4cccnc4N4CCCC4)ncnc3[nH]2)cc1", "note": "[P-0370, 6-(4-fluorophenyl)-4-(2-pyrrolidin-1-yl-3-pyridyl)-7H-pyrrolo[2,3-d]pyrimidine]", "GI50": "< 10"}, {"compound": "Fc1ccc(-c2cc3c(-c4ccccc4Oc4ccccc4)ncnc3[nH]2)cc1", "note": "[P-0371, 6-(4-fluorophenyl)-4-(2-phenoxyphenyl)-7H-pyrrolo[2,3-d]pyrimidine]", "GI50": "< 10"}, {"compound": "CCOc1ncccc1-c1ncnc2[nH]c(-c3ccc(F)cc3)cc12", "note": "[P-0372, 4-(2-ethoxy-3-pyridyl)-6-(4-fluorophenyl)-7H-pyrrolo[2,3-d]pyrimidine]", "GI50": "< 10"}, {"compound": "Cc1ccc(S(=O)(=O)Nc2ccccc2-c2ncnc3[nH]c(-c4ccc(F)cc4)cc23)cc1", "note": "[P-0373, N-[2-[6-(4-fluorophenyl)-7H-pyrrolo[2,3-d]pyrimidin-4-yl]phenyl]-4-methyl-benzenesulfonamide]", "GI50": "< 10"}, {"compound": "CS(=O)(=O)Nc1ccccc1-c1ncnc2[nH]c(-c3ccc(F)cc3)cc12", "note": "[P-0375, N-[2-[6-(4-fluorophenyl)-7H-pyrrolo[2,3-d]pyrimidin-4-yl]phenyl]methanesulfonamide]", "GI50": "< 10"}, {"compound": "NS(=O)(=O)c1ccc(-c2ncnc3[nH]c(-c4ccc(F)cc4)cc23)c(F)c1", "note": "[P-0376, 3-fluoro-4-[6-(4-fluorophenyl)-7H-pyrrolo[2,3-d]pyrimidin-4-yl]benzenesulfonamide]", "GI50": "< 10"}, {"compound": "Cc1cc2c(-c3ccc(NS(=O)(=O)C4CC4)cc3)ncnc2[nH]1", "note": "[P-0377, N-[4-(6-methyl-7H-pyrrolo[2,3-d]pyrimidin-4-yl)phenyl]cyclopropanesulfonamide]", "GI50": "< 10"}, {"compound": "Cc1cc2c(-c3sc(C(C)(C)C)nc3-c3cccc(NS(=O)(=O)N4CCCC4)c3F)ncnc2[nH]1", "note": "[P-0378, N-[3-[2-tert-butyl-5-(6-methyl-7H-pyrrolo[2,3-d]pyrimidin-4-yl)thiazol-4-yl]-2-fluoro-phenyl]pyrrolidine-1-sulfonamide]", "GI50": "< 10"}, {"compound": "Cc1cc2c(-c3ccc(NS(C)(=O)=O)cc3)ncnc2[nH]1", "note": "[P-0379, N-[4-(6-methyl-7H-pyrrolo[2,3-d]pyrimidin-4-yl)phenyl]methanesulfonamide]", "GI50": "< 10"}, {"compound": "Cc1cc2c(-c3ccc(S(=O)(=O)NC4CC4)cc3)ncnc2[nH]1", "note": "[P-0380, N-cyclopropyl-4-(6-methyl-7H-pyrrolo[2,3-d]pyrimidin-4-yl)benzenesulfonamide]", "GI50": "< 10"}, {"compound": "CCS(=O)(=O)Nc1ccc(-c2ncnc3[nH]c(-c4ccc(F)cc4)cc23)c(F)c1", "note": "[P-0381, N-[3-fluoro-4-[6-(4-fluorophenyl)-7H-pyrrolo[2,3-d]pyrimidin-4-yl]phenyl]ethanesulfonamide]", "GI50": "< 10"}, {"compound": "O=S(=O)(Nc1cccc(-c2ncnc3[nH]c(-c4cnc(C5CC5)nc4)cc23)c1)C1CC1", "note": "[P-0383, N-[3-[6-(2-cyclopropylpyrimidin-5-yl)-7H-pyrrolo[2,3-d]pyrimidin-4-yl]phenyl]cyclopropanesulfonamide]", "GI50": "< 10"}]}]}
